From patent US20190233519A1
These are yes or no findings as the source states them, for the method shown. Some entries that bind do so weakly or less than the wild type.

Amino acid sequences for entries named in this document (tags omitted). A change or cut given only in a name is not applied to a line headed by its entry.
UniProt P16410: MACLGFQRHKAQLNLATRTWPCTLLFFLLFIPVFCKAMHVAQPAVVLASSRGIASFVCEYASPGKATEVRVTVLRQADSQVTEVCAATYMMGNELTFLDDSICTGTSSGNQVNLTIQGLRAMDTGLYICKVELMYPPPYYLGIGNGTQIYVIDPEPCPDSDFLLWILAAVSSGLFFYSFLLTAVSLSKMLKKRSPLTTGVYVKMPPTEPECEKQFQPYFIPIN

Biological target: recombinant CTLA-4 ECD protein (Homo sapiens (Human)) (UniProt P16410)
Assay: screen of sdAb supernatants: ELISA on CTLA-4 ECD protein and FACS on CTLA-4 stable cell line

B1: AS07712 sdAb (VHH)
VHH: QIQLVESGGGSVQAGGSLRLSCAASAYTDRRYCMAWFRQAPGKEREGVATMDTDGSTRYADSVKGRFTISTDSAKNTLYLQMNSLEPEDTAMYYCAVGPNPRYCSGAINTRGAEHYFGYWGQGTQVTVSS
binding: binds
